Taken from: PubChem BioAssay AID504764 (Drosophila RNAi Screening Center, 2011)

- Screen: 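Genes whose knock-down alters Notch-dependent transcription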 (primary screen)
- Cells: Drosophila Kc167 cells
- Knock-down reagent: long dsRNA against Drosophila genes
- Timing: about 5 days (4 days dsRNA, then 24 h after transfection)
- Conditions: transfection of constitutively active membrane-tethered Notch lacking the extracellular domain, read 24 h later
- Measured: 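Light from a Notch-responsive E(spl)m3 luciferase reporter under active Notch, with control-promoter and no-Notch reporter wells to normalise; raw counts from paired wells a and b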
- Reading the numbers: induced reporter light, run 1, well a and induced reporter light, run 1, well b: higher = more light from the Notch target reporter with active Notch; control promoter light, run 1, well a and control promoter light, run 1, well b: higher = more light from the viral control promoter (cell number, transfection, viability); uninduced reporter light, run 1, well a: higher = more light from the Notch target reporter without active Notch
- Rule for the call: 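Hit if the duplicate-averaged log2 ratio of induced to control-promoter light gives a plate-wise z beyond ±2, or induced to uninduced beyond ±1.8; weak-control or discordant-duplicate wells dropped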
- Meaning of the calls: active = modifier hit (raised or lowered Notch signal); inactive = not a hit
The deposit covers about 22,000 reagents; this is an unselected part of those with a known target gene and a result. Over the whole deposit, 403 (1.9%) are marked active. 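Unnormalised raw counts per well; ratio z-scores behind the hit calls and whether each hit raises or lowers signal are not deposited.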 A number with no mark means an inactive call. A plus sign joins genes that one reagent is predicted to hit. Reagent sequences are not shown. Not stated in the record: the amount of reagent.

no.	gene	DRSC id	induced reporter light, run 1, well a	induced reporter light, run 1, well b	control promoter light, run 1, well a	control promoter light, run 1, well b	uninduced reporter light, run 1, well a
1	Polr1C (GeneID 33712)	DRSC02719	1.11e5	1.12e5	1.17e5	1.25e5	12060
2	CG8119 (GeneID 32500)	DRSC20083	83715	59205	57305	51200	9910
3	CG9395 (GeneID 34742)	DRSC03218	1.90e5	1.87e5	2.13e5	2.16e5	12215
4	SIFaR (GeneID 42530)	DRSC13467	77185	67985	1.08e5	92095	9105
5	SIFaR (GeneID 42530)	DRSC14266	2.24e5	1.94e5	2.28e5	2.62e5	16145
6	Edg84A (GeneID 40818)	DRSC12594	90100	81795	64725	54300	5360
7	Mcm5 (GeneID 41296)	DRSC16735	69135	83465	76475	57065	4735
8	Prosalpha7 (GeneID 36018)	DRSC07516	27005	22682	17060	15638	2265
9	CG4575 (retired record) (GeneID 31637)	DRSC18372	1.20e5	1.18e5	2.14e5	2.22e5	8620
10	CG14563 (GeneID 40435)	DRSC11724	33525	27575	29490	34975	1640
11	CG4783 (GeneID 42381)	DRSC15644	1.58e5	1.73e5	2.28e5	2.63e5	11655
12	CG32052 (GeneID 326184)	DRSC10966	1.74e5	1.26e5	1.65e5	1.58e5	10580
13	CG14744 (GeneID 35858)	DRSC06480	1.81e5	1.52e5	2.06e5	2.03e5	14935
14	CG42580 (GeneID 8673961)	DRSC20397	88760	83475	92270	90760	7960
15	pre-mod(mdg4)-AD + mod(mdg4) + pre-mod(mdg4)-X + 3 more	DRSC16328	1.69e5	1.75e5	2.11e5	1.70e5	15275
16	Or33b (GeneID 34602)	DRSC03387	1.61e5	1.74e5	1.64e5	1.69e5	16145
17	CG14423 (GeneID 31287)	DRSC17920	1.36e5	1.12e5	2.37e5	1.86e5	9435
18	Adgf-D (GeneID 41679)	DRSC16521	2.03e5	2.33e5	1.91e5	2.26e5	16260
19	CG7556 (GeneID 32902)	DRSC20052	2.02e5	2.03e5	1.64e5	1.44e5	14388
20	COX4L (GeneID 35491)	DRSC04841	1.65e5	1.61e5	1.47e5	1.74e5	11875
21	CCKLR-17D3 (GeneID 32864)	DRSC20015	91880	96365	72940	99575	11835
22	CCKLR-17D3 (GeneID 32864)	DRSC20017	61335	77395	72610	90995	11278
23	CycY (GeneID 34593)	DRSC02420	2.20e5	2.10e5	1.67e5	1.67e5	17010
24	DNAlig3 (GeneID 41518)	DRSC15201	56885	59505	39200	36865	2880
25	fzo (GeneID 42745)	DRSC16954	1.59e5	1.55e5	2.14e5	2.21e5	14770
26	CG14537 (GeneID 34072)	DRSC02395	1.33e5	1.59e5	87285	1.15e5	22160
27	CG13920 (GeneID 38203)	DRSC08389	1.09e5	1.12e5	1.99e5	2.30e5	8340
28	lmd (GeneID 42717)	DRSC15618	1.62e5	1.87e5	2.17e5	2.25e5	12755

Reformatted: entries from further up.
CG9395 (GeneID 34742) [DRSC03218]
- induced reporter light, run 1, well a: 1.90e5
- induced reporter light, run 1, well b: 1.87e5
- control promoter light, run 1, well a: 2.13e5
- control promoter light, run 1, well b: 2.16e5
- uninduced reporter light, run 1, well a: 12215

SIFaR (GeneID 42530) [DRSC13467]
- induced reporter light, run 1, well a: 77185
- induced reporter light, run 1, well b: 67985
- control promoter light, run 1, well a: 1.08e5
- control promoter light, run 1, well b: 92095
- uninduced reporter light, run 1, well a: 9105

SIFaR (GeneID 42530) [DRSC14266]
- induced reporter light, run 1, well a: 2.24e5
- induced reporter light, run 1, well b: 1.94e5
- control promoter light, run 1, well a: 2.28e5
- control promoter light, run 1, well b: 2.62e5
- uninduced reporter light, run 1, well a: 16145

Edg84A (GeneID 40818) [DRSC12594]
- induced reporter light, run 1, well a: 90100
- induced reporter light, run 1, well b: 81795
- control promoter light, run 1, well a: 64725
- control promoter light, run 1, well b: 54300
- uninduced reporter light, run 1, well a: 5360

Mcm5 (GeneID 41296) [DRSC16735]
- induced reporter light, run 1, well a: 69135
- induced reporter light, run 1, well b: 83465
- control promoter light, run 1, well a: 76475
- control promoter light, run 1, well b: 57065
- uninduced reporter light, run 1, well a: 4735

Next entries follow:
no.	gene	DRSC id	induced reporter light, run 1, well a	induced reporter light, run 1, well b	control promoter light, run 1, well a	control promoter light, run 1, well b	uninduced reporter light, run 1, well a
29	CG6441 (GeneID 34029)	DRSC02957	1.41e5	1.36e5	1.68e5	1.60e5	7538
30	CG18493 (GeneID 42319)	DRSC15334	1.91e5	1.75e5	2.20e5	2.33e5	15015
31	Osi21 (GeneID 34566)	DRSC02408	1.11e5	1.53e5	72200	87275	16692
32	Oatp58Db (GeneID 37544)	DRSC04364	49290	35200	50465	67310	2115
33	Dnai2 (GeneID 39318)	DRSC10575	1.30e5	1.66e5	1.87e5	1.46e5	6610
34	Pten (GeneID 43991)	DRSC03402	1.58e5	1.82e5	1.02e5	1.36e5	24395
35	Smg5 (GeneID 34804)	DRSC03124	2.21e5	2.46e5	2.70e5	3.11e5	17045
36	mthl7 (GeneID 38910)	DRSC10852	1.78e5	1.91e5	3.01e5	2.05e5	10025
37	CG2124 (GeneID 31989)	DRSC18208	1.26e5	1.01e5	2.16e5	1.93e5	8075
38	CG17780 + CG17781	DRSC15266	1.43e5	1.54e5	1.71e5	1.65e5	12100
39	ppk10 (GeneID 3885617)	DRSC01123	1.55e5	1.49e5	1.70e5	1.52e5	12440
40	lost (GeneID 40559)	DRSC12002	1.89e5	2.36e5	3.29e5	2.89e5	16680
41	lost (GeneID 40559)	DRSC12234	1.06e5	82095	55300	69440	6635
42	GstZ2 (GeneID 41133)	DRSC16479	1.59e5	1.42e5	87710	79405	11335
43	CG9143 (GeneID 37296)	DRSC07338	97255	1.02e5	1.94e5	2.66e5	8870
44	fs(1)Ya (GeneID 31263)	DRSC18776	59755	71405	62070	65380	9330
45	Dg (GeneID 36773)	DRSC06718	80040	82475	99820	97680	5870
46	CG7231 (GeneID 34086)	DRSC03034	1.33e5	1.59e5	85760	97690	20675
47	ATPsynbeta (GeneID 43829)	DRSC17194	11675	10990	18150	21865	635
48	CG42713 (GeneID 10178890)	DRSC01050	1.38e5	1.41e5	2.63e5	1.94e5	10275
49	CG9953 (GeneID 38763)	DRSC11106	2.00e5	1.67e5	2.03e5	1.48e5	11595
50	CtsK2 (GeneID 36973)	DRSC06897	98520	92995	1.48e5	2.04e5	10705
51	CG32708 (GeneID 318161)	DRSC18411	45395	51075	42555	61095	4200
52	CAP (GeneID 36084)	DRSC05215	1.68e5	2.38e5	1.74e5	2.10e5	16278
53	CAP (GeneID 36084)	DRSC06743	2.05e5	2.00e5	2.20e5	1.87e5	16600
54	CAP (GeneID 36084)	DRSC06744	1.91e5	1.77e5	1.89e5	1.82e5	14305
55	CAP (GeneID 36084)	DRSC06745	1.93e5	2.21e5	2.43e5	2.41e5	17450
56	CAP (GeneID 36084)	DRSC06846	2.17e5	2.10e5	2.82e5	2.58e5	19282
57	Sas-6 (GeneID 43555)	DRSC15061	1.39e5	1.48e5	2.18e5	1.84e5	10535
58	RASSF8 (GeneID 43096)	DRSC15707	1.57e5	1.44e5	2.02e5	2.08e5	11235
59	CG31689 (GeneID 326154)	DRSC00734	1.11e5	1.05e5	88545	76360	8955
60	CAH15 (GeneID 37366)	DRSC04534	40800	33030	31535	34600	2875
61	Atg10 + CG12822	DRSC06796	2.53e5	2.24e5	2.99e5	2.86e5	19050
62	CG9799 (GeneID 41647)	DRSC16567	1.16e5	1.25e5	96635	98600	7700
63	Had2 (GeneID 36624)	DRSC05971	1.85e5	1.80e5	1.87e5	1.95e5	14170
64	yellow-b (GeneID 35005)	DRSC03639	1.24e5	1.28e5	1.06e5	1.24e5	11015
